Structures are written as SMILES. Structures can show the parent of a compound that is named as a salt. This is one part of the list. Single values are uncertain here, since repeats match poorly.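 Human embryonic kidney cells were transiently transfected with a plasmid bearing a Renilla luciferase gene under the HSV-TK promoter. This first-round screen tests roughly ten thousand compounds for ones that increase reporter output.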

For the test, the system named is HEK 293FT. Briefly: log relative Renilla luciferase luminescence (reporter expression vs reference, reference not stated) (log (base not stated)); higher = higher recombinant reporter expression. The note with it: 10 µM; time after transfection 48 h.
As for `CC(O)C(=O)O.N` (configuration not stated) [ammonium lactate], the log was -0.0307.
Regarding `CN(C)CCN(Cc1ccccc1)c1ccccn1` [tripelennamine citrate], the log was -0.244.
In the case of `C=CC1=C(C)c2cc3[nH]c(cc4nc(cc5[nH]c(cc1n2)c(C)c5CCC(=O)O)C(CCC(=O)O)=C4C)c(C)c3C=C` [protoporphyrin ix] it was -0.208; in that of `CC(=O)O[C@@]12CO[C@@H]1C[C@H](O)[C@@]1(C)C(=O)[C@H](O)C3=C(C)[C@@H](OC(=O)[C@H](O)[C@@H](NC(=O)OC(C)(C)C)c4ccccc4)C[C@@](O)([C@@H](OC(=O)c4ccccc4)[C@H]21)C3(C)C` [docetaxel], 0.111.
Turning to `Nc1ncnc2c1ncn2[C@@H]1O[C@H](CO)[C@@H](O)[C@H]1O` [adenosine], the log is -0.0298.
Consider `Clc1ccc(CSC(Cn2ccnc2)c2ccc(Cl)cc2Cl)cc1` (configuration not stated) [sulconazole nitrate], for which the log was -0.153.
With `C[n+]1cc2c3c(ccc2c2ccc4cc5c(cc4c21)OCO5)OCO3` [sanguinarine sulfate], the log is -0.162.
As to `COc1ccc2c(c1)OCC(Cc1ccc(O)c(OC)c1)C2=O` (configuration not stated) [deoxysappanone b 7,3'-dimethyl ether], the log came to 0.0993.
For `COc1ccc2oc(-c3ccccc3OC)cc(=O)c2c1` [6,2'-dimethoxyflavone], the log was -0.0423.
As to `Fc1ccc(C(c2ccc(F)cc2)N2CCN(C/C=C/c3ccccc3)CC2)cc1` [flunarizine hydrochloride], the log was 0.14.
In the case of `CN1CCc2c(c3ccccc3n2Cc2ccccc2)C1` [mebhydrolin naphthalenesulfonate] it was 0.0534; in that of `Cc1ccc(Nc2c(F)cccc2Cl)c(CC(=O)O)c1` [lumiracoxib], 0.00335; in that of `CC(=O)Nc1cc2ccccc2oc1=O` [3-acetamidocoumarin], 0.0535.
For the compound `COc1ccc(/C=C/C(=O)O)cc1OC` [dimethylcaffeic acid], the log was -0.00986.
As for `CCCCC(=O)O[C@H]1CC[C@H]2[C@@H]3CCc4cc(O)ccc4[C@H]3CC[C@]12C` [estradiol valerate], the log stood at 0.00551.
In the case of `N=C(N)c1ccc(OCCCCCOc2ccc(C(=N)N)cc2)cc1` [pentamidine isethionate] it was 0.15; in that of `O=C(OC[C@H]1O[C@@H](OC(=O)c2cc(O)c(O)c(OC(=O)c3cc(O)c(O)c(O)c3)c2)[C@H](OC(=O)c2cc(O)c(O)c(OC(=O)c3cc(O)c(O)c(O)c3)c2)[C@@H](OC(=O)c2cc(O)c(O)c(OC(=O)c3cc(O)c(O)c(O)c3)c2)[C@@H]1OC(=O)c1cc(O)c(O)c(OC(=O)c2cc(O)c(O)c(O)c2)c1)c1cc(O)c(O)c(OC(=O)c2cc(O)c(O)c(O)c2)c1` [tannic acid], -0.394.
With `OCCOCCN1CCN(C2=Nc3ccccc3Sc3ccccc32)CC1` [quetiapine], the log was determined as 0.069.
In the case of `Cc1cc(O)c(C)c(O)c1C(=O)O` [3-methylorsellinic acid], the log amounted to 0.0874.
In the case of `COc1cccc2c1C(=O)c1c(O)c3c(c(O)c1C2=O)C[C@@](O)(C(=O)CO)C[C@@H]3O[C@H]1C[C@H](N)[C@H](O)[C@H](C)O1` [doxorubicin] it was -1.42; in that of `CC1(C)S[C@@H]2[C@H](NC(=O)[C@H](N)c3ccc(O)cc3)C(=O)N2[C@H]1C(=O)O` [amoxicillin], -0.292.
On to `N=C(N)NC(=N)Nc1ccccc1` [1-phenylbiguanide hydrochloride], for which the log is -0.182.
With `Cc1ccc2c(Br)cc(Br)c(OC(=O)c3ccccc3)c2n1` [broxaldine], the log is -0.282.
In the case of `CN[C@@H]1[C@H](O[C@H]2[C@H](O[C@H]3[C@H](O)[C@@H](O)[C@H](N=C(N)N)[C@@H](O)[C@@H]3N=C(N)N)O[C@@H](C)[C@]2(O)C=O)O[C@@H](CO)[C@H](O)[C@H]1O` [streptomycin sulfate], the log was -0.0561.
With `COc1cc(-c2coc3cc(OCc4ccccc4)c(OC)c(O)c3c2=O)cc(OCc2ccccc2)c1OC` [irigenin, dibenzyl ether], the log was -0.0356.
On to `Cc1cccc(C(=O)O)c1O` [hydroxytoluic acid], for which the log stood at 0.19.
Consider `CC1(C)C(=O)C=C[C@]2(C)[C@H]3CC[C@@]4(C)[C@H](c5ccoc5)OC(=O)[C@H]5O[C@]54[C@]3(C)C(=O)C[C@@H]12` [deacetoxy-7-oxogedunin], for which the log was found to be 0.311.
`CNCCCC1c2ccccc2C=Cc2ccccc21` [protryptyline hydrochloride]: the log was found to be 0.223.
Take `CCOC(=O)C1=C[C@@H](OC(CC)CC)[C@H](NC(C)=O)[C@@H](N)C1` [oseltamivir phosphate]: the log is 0.0324.
Take `C[C@]12CCC(=O)C=C1CC[C@@H]1[C@@H]2[C@@H](O)C[C@@]2(C)[C@H]1CC[C@]2(O)C(=O)CO` [hydrocortisone]: the log is 0.116.
`Oc1ncnc2[nH]ncc12` [allopurinol]: the log is -0.0915.
Turning to `c1ccc2c(Cc3c[nH]c4ccccc34)c[nH]c2c1` [3,3'-diindolylmethane], the log is 0.0168.
For the compound `CO/N=C(\C(=O)N[C@@H]1C(=O)N2C(C(=O)OCOC(=O)C(C)(C)C)=C(/C=C\c3scnc3C)CS[C@H]12)c1csc(N)n1` [cefditorin pivoxil], the log stood at 0.106.
In the case of `CN(N=O)C(=O)N[C@H]1C(O)O[C@H](CO)[C@@H](O)[C@@H]1O` (mixture of isomers) [streptozosin] it was 0.019.
`COc1ccc(CCN(C)CCCC(C#N)(c2ccc(OC)c(OC)c2)C(C)C)cc1OC` (configuration not stated) [verapamil hydrochloride]: the log was determined as 0.0481.
Consider `CCCc1cc(=O)[nH]c(=S)[nH]1` [propylthiouracil], for which the log came to 0.113.
Turning to `CC1=C(CCC(=O)O)c2cc3[nH]c(cc4nc(cc5[nH]c(cc1n2)c(C)c5C(C)O)C(C)=C4C(C)O)c(C)c3CCC(=O)O` (configuration not stated) [haematoporphyrin], the log is -0.0723.
Regarding `CN(C)CCCN1c2ccccc2Sc2ccccc21` [promazine hydrochloride], the log stood at 0.0862.
With `Cc1cc(C(C)(C)C)c(O)c(C)c1CC1=NCCN1` [oxymetazoline hydrochloride], the log is 0.212.
For `NC(Cc1ccc(Cl)cc1)C(=O)O` (configuration not stated) [fenclonine], the log came to 0.0848.
In the case of `C=CC(C1=CC(=O)C=CC1=O)c1ccccc1` (configuration not stated) [dalbergione] it was 0.0391; in that of `COc1c2ccoc2c(OC)c2oc(=O)ccc12` [isopimpinellin], 0.000119.
In the case of `COc1ccc([C@@H]2CC(=O)c3c(O)cc(O[C@@H]4O[C@H](CO[C@@H]5O[C@@H](C)[C@H](O)[C@@H](O)[C@H]5O)[C@@H](O)[C@H](O)[C@H]4O)cc3O2)cc1O` [hesperidin] it was 0.175; in that of `CC(C)(C(=O)O)c1ccc(C(O)CCCN2CCC(C(O)(c3ccccc3)c3ccccc3)CC2)cc1` (configuration not stated) [fexofenadine hydrochloride], 0.178; in that of `C[C@]1(OC(=O)/C=C/c2ccccc2)C[C@@H](O)[C@]2(O)C=CO[C@@H](O[C@@H]3O[C@H](CO)[C@@H](O)[C@H](O)[C@H]3O)[C@@H]21` [harpagoside], 0.109.
On to `COc1ccc2c(c1)OC/C(=C\c1ccc(OC)c(O)c1)C2=O` [sappanone a dimethyl ether], for which the log was 0.25.
As to `C[N+]1(C)[C@@H]2CC[C@H]1C[C@@H](OC(=O)C(O)c1ccccc1)C2` (some centres not stated) [homatropine methylbromide], the log is 0.133.
In the case of `COC(=O)C1=C(C)NC(C)=C(C(=O)OCCN2CCN(C(c3ccccc3)c3ccccc3)CC2)C1c1cccc([N+](=O)[O-])c1` (configuration not stated) [manidipine hydrochloride] it was -0.148.
Turning to `COC(=O)[C@H]1[C@H]2C[C@H]3c4[nH]c5ccccc5c4CCN3C[C@@H]2CC[C@@H]1O` [corynanthine], the log is 0.0828.
As to `CC(=O)Nc1ccccc1` [acetanilide], the log was 0.0992.
As to `CSc1ccc2c(c1)C(N1CCN(C)CC1)Cc1ccccc1S2` (configuration not stated) [metitepine maleate], the log was -0.491.
For the compound `C[C@H]1COc2c(C3(N)CC3)c(F)cc3c(=O)c(C(=O)O)cn1c23` [pazufloxacin mesylate], the log is -0.148.
Turning to `CC(C(=O)O)c1ccc2c(c1)Cc1cccnc1O2` (configuration not stated) [pranoprofen], the log is -0.13.
Consider `COC(=O)Nc1nc2cc(C(=O)c3ccccc3)ccc2[nH]1` [mebendazole], for which the log was -0.149.
On to `CC1(C)S[C@@H]2[C@H](NC(=O)[C@H](NC(=O)N3CCNC3=O)c3ccccc3)C(=O)N2[C@H]1C(=O)O` [azlocillin sodium], for which the log was found to be 0.119.
As to `CCCCCCCCCc1ccc(OCCOCCOCCOCCOCCOCCOCCOCCOCCO)cc1` [nonoxynol-9], the log is -1.69.
For the compound `CC(C)c1ccc2oc3nc(N)c(C(=O)O)cc3c(=O)c2c1` [amlexanox], the log turned out to be 0.0358.
For the compound `NC(=O)c1cc[n+](CC2=C(C(=O)O)N3C(=O)[C@@H](NC(=O)[C@@H](c4ccccc4)S(=O)(=O)[O-])[C@H]3SC2)cc1` [cefsulodin sodium], the log came out at 0.0585.
In the case of `CCCCCCc1ccc(O)cc1O.Nc1c2ccccc2nc2ccccc12` [acrisorcin] it was 0.162.
In the case of `CC1(C)CC[C@]2(C)CC[C@]3(C)C(=CC[C@@H]4[C@@]5(C)CC[C@H](O)C(C)(C)[C@@H]5CC[C@]43C)[C@@H]2C1` [beta-amyrin] it was 0.0307; in that of `Cc1cc2c(cc1S(N)(=O)=O)S(=O)(=O)CCC2` [meticrane], 0.111.
In the case of `Cc1cc(O)c(C=O)c2c1C(=O)Oc1c(C)c(O)c3c(c1O2)C(O)OC3=O` (configuration not stated) [norstictic acid] it was -0.0587; in that of `CN1C(C)(C)CCCC1(C)C` [pempidine tartrate], -0.0634; in that of `Cc1onc(-c2c(Cl)cccc2Cl)c1C(=O)N[C@@H]1C(=O)N2[C@@H]1SC(C)(C)[C@@H]2C(=O)O` [dicloxacillin sodium], 0.00912.
With `O=c1ccc2ccc(O)cc2o1` [umbelliferone], the log came out at 0.12.
For `CN(C)/N=N/c1[nH]cnc1C(N)=O` [dacarbazine], the log came to 0.135.
Take `C[N+](C)(C)CCCCCC[N+](C)(C)C` [hexamethonium bromide]: the log is -0.054.

For the origin of these results see the supplement of paper PMC7024190.
